Laboratory results reported in patent publication US20060142391A1, “PPARGAMMA-ACTIVATING PHARMACEUTICAL COMPOSITION” (priority 2001, published 2006).
For at least one compound, name, drawing or mass did not settle the structure.

Test system: GAL4 (yeast transcription activator)—PPARγ fusion protein
Assay: PPARγ agonist activity assay (GAL4-PPARγ / CAT reporter in COS-1 cells)
Type: cell-based
Settings: test compound at 3 μM, CAT activity after 24 hours
Description: COS-1 cells were cotransfected with a plasmid for expressing a GAL4 (yeast transcription activator)—PPARγ fusion protein (effector plasmid) and a reporter plasmid 17 M2 CAT (GAL4 responsive sequence+TK promoter+chloramphenicol acetyltransferase cDNA), and then test compounds were added to the culture medium and CAT activity was assayed after 24 hours and compared with a negative control (with no drug added) to calculate a relative CAT activity, whereby PPARγ agonist activity was evaluated ('90 Proc. Natl. Acad. Sci. USA 87, p. 9995; '94 J. B. C. 269, p. 32700; '95 ibid. p. 5858; '00 J.B.C. 275, p. 33201). […] Then, 4(S)-OH-DHA, 8(S)-OH-DHA, 10(S)-OH-DHA, 11(S)-OH-DHA, 14(S)-OH-DHA and 17(S)-OH-DHA prepared in Example 1 were used as test compounds to assay PPARγ agonist activity as compared with 15-deoxy-PG J2 (from Bio Mol) known as a ligand for PPARγ as a positive control.

## CC/C=C\C/C=C\C/C=C\C/C=C\C/C=C\CCCC(=O)O [EPA, eicosapentaenoic acid, reference compound]
  PPARγ transcription activity, ratio as compared with the negative control: no activity was observed
